In article PMC3335792:
No constants are given. Whether binding was seen depends on the method and setting.

By UniProt entry, the sequences of proteins in these tests, tags left out.
UniProt P0A988: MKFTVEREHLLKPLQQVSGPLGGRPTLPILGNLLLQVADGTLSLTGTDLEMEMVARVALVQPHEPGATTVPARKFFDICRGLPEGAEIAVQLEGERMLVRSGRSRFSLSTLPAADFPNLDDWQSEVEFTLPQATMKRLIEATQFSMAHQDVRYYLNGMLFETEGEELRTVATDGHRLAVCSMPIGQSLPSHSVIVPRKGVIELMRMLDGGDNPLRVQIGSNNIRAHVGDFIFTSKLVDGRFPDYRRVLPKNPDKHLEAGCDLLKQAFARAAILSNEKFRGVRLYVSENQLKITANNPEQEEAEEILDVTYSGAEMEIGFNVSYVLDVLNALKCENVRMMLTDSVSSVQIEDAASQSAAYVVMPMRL
UniProt P15042: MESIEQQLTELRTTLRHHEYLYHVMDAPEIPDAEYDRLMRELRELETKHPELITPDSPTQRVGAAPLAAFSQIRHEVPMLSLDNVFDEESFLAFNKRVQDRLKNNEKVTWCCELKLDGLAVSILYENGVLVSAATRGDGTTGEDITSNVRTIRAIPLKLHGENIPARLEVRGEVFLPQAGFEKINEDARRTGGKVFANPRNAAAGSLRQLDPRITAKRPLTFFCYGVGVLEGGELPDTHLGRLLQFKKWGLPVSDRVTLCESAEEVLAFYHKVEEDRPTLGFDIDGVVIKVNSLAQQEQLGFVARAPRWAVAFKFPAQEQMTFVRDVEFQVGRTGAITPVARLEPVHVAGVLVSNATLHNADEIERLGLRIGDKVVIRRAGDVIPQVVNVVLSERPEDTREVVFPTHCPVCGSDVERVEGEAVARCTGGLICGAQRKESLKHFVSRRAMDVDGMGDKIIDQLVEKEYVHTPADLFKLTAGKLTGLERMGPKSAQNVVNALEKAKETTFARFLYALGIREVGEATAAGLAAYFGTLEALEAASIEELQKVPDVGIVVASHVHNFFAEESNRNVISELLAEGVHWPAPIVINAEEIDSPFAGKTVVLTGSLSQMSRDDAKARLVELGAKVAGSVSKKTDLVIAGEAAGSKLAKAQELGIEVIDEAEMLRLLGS

Assays:
[1] = target: T1, Mtbβ-clamp labeled with OregonGreen488 maleimide (Mtbβ-clamp^OG) (M. tuberculosis) (UniProt P9WNU1); assay: other fluorescence titration; OregonGreen488-labeled β-clamp (50 or 100 nM in the methods, 90 nM in the legend) titrated with the partner protein; 20 mM Tris-Cl pH 7.5, 8 mM MgCl2, 1 mM DTT, 0.2 mM EDTA, 50 mM NaCl, 0.5 mM ATP, 22°C; emission at 510 nm; apparent Kd; both purified
T1 sequence (chain, OregonGreen488 maleimide label (residue not stated)): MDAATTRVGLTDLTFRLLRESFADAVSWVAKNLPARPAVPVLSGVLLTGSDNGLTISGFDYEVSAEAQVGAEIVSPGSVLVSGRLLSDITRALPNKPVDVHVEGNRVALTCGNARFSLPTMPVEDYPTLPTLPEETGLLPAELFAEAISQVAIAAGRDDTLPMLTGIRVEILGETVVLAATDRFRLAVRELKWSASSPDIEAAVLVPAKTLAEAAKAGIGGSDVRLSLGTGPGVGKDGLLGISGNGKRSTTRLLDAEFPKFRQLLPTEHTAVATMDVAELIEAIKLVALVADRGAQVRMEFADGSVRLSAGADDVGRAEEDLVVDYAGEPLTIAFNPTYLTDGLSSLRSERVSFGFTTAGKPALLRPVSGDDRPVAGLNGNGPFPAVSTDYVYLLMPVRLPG

[2] = target: E. coli β-clamp labeled with OregonGreen488 (E. coli β-clamp^OG) (E. coli) (UniProt P0A988); assay: as above

Row | Substance | binding [1] | binding [2]
1 | E. coli NAD+-dependent DNA ligase (E. coli LigA) (from UniProt P15042 1-671) (enzyme) | no binding | 
2 | M. tuberculosis NAD+-dependent DNA ligase (MtbLigA, Rv3014c) (from UniProt P9WNV1 1-691) (enzyme) | no binding | no binding
